Measurements: patent US20250145722A1, “ANTI-GAL3 ANTIBODIES AND METHODS OF USE” (TrueBinding, Inc., priority 2020, published 2025)
No constants are given. Whether binding was seen depends on the method and setting. Some entries that bind do so weakly or less than the wild type.

Sequences of proteins named here, by UniProt entry; tags and fusion partners are left off. A change or cut given only in a name is not applied to a line headed by its entry.
UniProt P17931: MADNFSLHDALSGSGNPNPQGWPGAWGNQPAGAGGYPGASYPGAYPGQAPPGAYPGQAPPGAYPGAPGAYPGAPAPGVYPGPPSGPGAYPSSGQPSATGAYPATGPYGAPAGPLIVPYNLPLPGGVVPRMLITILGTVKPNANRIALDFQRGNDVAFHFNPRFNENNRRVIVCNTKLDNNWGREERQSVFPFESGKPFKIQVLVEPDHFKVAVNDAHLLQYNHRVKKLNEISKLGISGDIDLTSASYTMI

Columns and labels:
[1] = biological target: C-terminal domain of rhGal-3C (SinoBio #ME13SE2105 IM1-2), amino acids 112-250 (human) (UniProt P17931); test: condition: 300 nM (start of the dilution series by paragraph 897; not printed on the sheet); Gator biosensor kinetics (legend: SPR), 6H6 mIgG2a loaded on probes, rhGalectin-3-CRD as analyte
[2] = biological target: C-terminal domain of rhGal-3C (SinoBio #ME13SE2105 IM1-2), amino acids 112-250 (human) (UniProt P17931); test: Gator biosensor kinetics, antibody loaded on probe
[3] = biological target: human Galectin-3 (Gal3), full-length recombinant (human) (UniProt P17931); test: titration of the antibody on a panel of galectins; set-up not given, species of the galectins not given

binding [1] | binding [2] | binding [3] | Binder
no binding | no binding (tested: 300 nM) |  | 6H6.2D6 (antibody, human IgG4 S228P, kappa, V domains shown) VH: QIQLVQSGPELKKPGETVKISCKASGYTFTTYGMSWVKQAPGKGLKWMAWINTYSGVPTYADDFKGRFAFSLETSASTAYLQINNLTNEDTATYFCARGPYAMDYWGQGTSVTVSS VL: DIQMTQTTSSLSASLGDRVTISCSASQGISNYLNWYQQKPDGTVKLLIYYTSSLHSGVPSRFSGSGSGTDYSLTISNLEPEDIATYYCQQYSELPYTFGSGTKLEIKR
 |  | binds | TB006 (antibody, V domains shown) VH: QVQLVQSGAEVKKPGASVKVSCKASGYSFTNYYMHWVRQAPGQRLEWMGWIYPGSGNTNYNEKFQGRVTITADTSASTAYMELSSLRSEDTAVYYCSTAPGGFDVWGQGTTVTVSS VL: DIVMTQTPLSLSVTPGQPASISCKSSKSLLHSDGITYLYWYLQKPGQSPQLLIYRMSNLASGVPDRFSGSGSGTDFTLKISRVEAEDVGVYYCAQMLEFPLTFGQGTKLEIKR
